Our source for the binding values is patent US20170226207A1 (Astellas, published 2017).

Where a chain is given by its changes, count along the chain named. Results are given in words; binding and its absence hold for the method and conditions named. Some binding calls cover weakened binding; strength is not graded here.

In the experiment the target is T1, human Igβ-Flag protein (human, UniProt P40259 29-159, limits assumed).
T1 construct: Expressed in FreeStyle 293 cells, purified from culture supernatant with anti-Flag M2 gel; not shown: Flag tag
T1 sequence (looked up): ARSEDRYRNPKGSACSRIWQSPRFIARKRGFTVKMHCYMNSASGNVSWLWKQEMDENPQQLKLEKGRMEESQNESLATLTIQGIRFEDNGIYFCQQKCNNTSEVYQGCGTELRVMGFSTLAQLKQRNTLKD
The experiment is described as follows: antigen ELISA, Igβ-Flag coated on plate.

B1: humanized antibody CL6_40m12_DDW (antibody, human IgG1, kappa, V domains shown)
VH: EVQMVESGGGLVQPGGSLRLSCAVSGFSLSSYSVHWVRQAPGKGLEWVAGIWSGGSIHYTPALSSRFTVSRDDSKNTVYLQMNSLRAEDTAVYYCARYDRYETYAMDYWGQGTLVTVSS
VL: DIQLTQSPSSLSASVGDRVTITCKASQSVDYDGDSYMNWYQQKPGKAPKLLIYAASNLESGVPSRFSGSGSGTDFTLTISSLQPEDFATYYCQQSNEDPLTFGQGTKVEIKR
notes: Humanized anti-human Igβ antibody
B1: the binding result is “binds”.

B2: humanized antibody CL6_40m16_DDW (antibody, human IgG1, kappa, V domains shown)
VH: B1 VH with M4L, V37F, Q39K, V48L, A49G, F67L, D73I
VL: B1 VL with Q3V
notes: as for B1
As to B2, the binding entry was “binds”.
